# Test results taken from the supplement of paper PMC8728848.
# Some of the results follow.
# B1: LlpB (Pseudomonas fluorescens) (protein)
# chain: MGSSHHHHHHSSGLVPRGSHMASSGFRIILFNSANNGTAILPPRNCLVAGQYLESPSKRYKLILEADGNLRLYDNGVPIWVADSSVPYTYVDNRPNTNLVTCFYMQGSAFLVDRVGSRTWATIGDWIDGAADRAYLQVQDDGNVVVVDGVPRWARFGFTPAALPNRGVFYPDHGTGPLPSFPVWSWTF
# Experiments:
# Assay in all cases: glycan array binding signal (z-score within array); higher = stronger binding
# Conditions in all cases: glycan notation: IUPAC condensed, linker removed
# [1] = molecular target: Man(a1-2)Man(a1-3)[Man(a1-2)Man(a1-6)]Man(a1-6)[Man(a1-2)Man(a1-2)Man(a1-3)]Man
# How it was run: (§1)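 The binding signal is a Z-score computed within each array and averaged over linkers. Arrays of the same protein sequence at different concentrations or buffers were also averaged together. Data originate from 3228 arrays in the Consortium for Functional Glycomics database, kept only where the protein sequence was available.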
# [2] = molecular target: Man(a1-2)Man(a1-3)[Man(a1-2)Man(a1-6)]Man(a1-6)[Man(a1-2)Man(a1-2)Man(a1-3)]Man(b1-4)GlcNAc(b1-4)GlcNAc
# How it was run: as §1
# [3] = molecular target: Man(a1-2)Man(a1-3)[Man(a1-6)]Man(a1-6)[Man(a1-2)Man(a1-3)]Man(b1-4)GlcNAc(b1-4)GlcNAc
# How it was run: as §1
# [4] = molecular target: Man(a1-2)Man(a1-6)[Man(a1-3)]Man(a1-6)[Man(a1-2)Man(a1-2)Man(a1-3)]Man
# How it was run: as §1
# [5] = molecular target: Man(a1-2)Man(a1-6)[Man(a1-3)]Man(a1-6)[Man(a1-2)Man(a1-2)Man(a1-3)]Man(b1-4)GlcNAc(b1-4)GlcNAc
# How it was run: as §1
# Man(a1-3)[Man(a1-6)]Man = molecular target: Man(a1-3)[Man(a1-6)]Man
# How it was run: as §1
# [6] = molecular target: Man(a1-3)[Man(a1-6)]Man(a1-6)[Man(a1-2)Man(a1-3)]Man(b1-4)GlcNAc(b1-4)GlcNAc
# How it was run: as §1
# [7] = molecular target: Man(a1-3)[Man(a1-6)]Man(a1-6)[Man(a1-3)]Man
# How it was run: as §1
# [8] = molecular target: Man(a1-3)[Man(a1-6)]Man(a1-6)[Man(a1-3)]Man(b1-4)GlcNAc(b1-4)GlcNAc
# How it was run: as §1
# [9] = molecular target: Man(a1-3)[Man(a1-6)]Man(b1-4)GlcNAc(b1-4)GlcNAc
# How it was run: as §1
# [10] = molecular target: Man(a1-3)[Man(a1-6)]Man(b1-4)GlcNAc(b1-4)[Fuc(a1-6)]GlcNAc
# How it was run: as §1
# Man(a1-6)Man = molecular target: Man(a1-6)Man
# How it was run: as §1
# Man(b1-4)GlcNAc = molecular target: Man(b1-4)GlcNAc
# How it was run: as §1
# MurNAc(b1-4)GlcNAc = molecular target: MurNAc(b1-4)GlcNAc
# How it was run: as §1
# Neu5Ac(a2-3)Gal = molecular target: Neu5Ac(a2-3)Gal
# How it was run: as §1
# [11] = molecular target: Neu5Ac(a2-3)Gal(b1-3)GalNAc
# How it was run: as §1
# [12] = molecular target: Neu5Ac(a2-3)Gal(b1-3)GalNAc(b1-3)Gal(a1-4)Gal(b1-4)Glc
# How it was run: as §1
# [13] = molecular target: Neu5Ac(a2-3)Gal(b1-3)GalNAc(b1-4)Gal(b1-4)Glc
# How it was run: as §1
# [14] = molecular target: Neu5Ac(a2-3)Gal(b1-3)GalNAc(b1-4)[Neu5Ac(a2-3)]Gal(b1-4)Glc
# How it was run: as §1
# [15] = molecular target: Neu5Ac(a2-3)Gal(b1-3)GalNAc(b1-4)[Neu5Ac(a2-8)Neu5Ac(a2-3)]Gal(b1-4)Glc
# How it was run: as §1
# [16] = molecular target: Neu5Ac(a2-3)Gal(b1-3)GalNAc6S
# How it was run: as §1
# [17] = molecular target: Neu5Ac(a2-3)Gal(b1-3)GlcNAc
# How it was run: as §1
# [18] = molecular target: Neu5Ac(a2-3)Gal(b1-3)GlcNAc(b1-2)Man
# How it was run: as §1
# [19] = molecular target: Neu5Ac(a2-3)Gal(b1-3)GlcNAc(b1-2)Man(a1-3)[GlcNAc(b1-4)][Neu5Ac(a2-3)Gal(b1-3)GlcNAc(b1-2)Man(a1-6)]Man(b1-4)GlcNAc(b1-4)GlcNAc
# How it was run: as §1
# [20] = molecular target: Neu5Ac(a2-3)Gal(b1-3)GlcNAc(b1-2)Man(a1-3)[Neu5Ac(a2-3)Gal(b1-3)GlcNAc(b1-2)Man(a1-6)]Man(b1-4)GlcNAc(b1-4)GlcNAc
# How it was run: as §1
# [21] = molecular target: Neu5Ac(a2-3)Gal(b1-3)GlcNAc(b1-2)[Neu5Ac(a2-3)Gal(b1-3)GlcNAc(b1-4)]Man(a1-6)[Neu5Ac(a2-3)Gal(b1-3)GlcNAc(b1-2)Man(a1-3)]Man(b1-4)GlcNAc(b1-4)GlcNAc
# How it was run: as §1
# [22] = molecular target: Neu5Ac(a2-3)Gal(b1-3)GlcNAc(b1-3)Gal(b1-3)GlcNAc
# How it was run: as §1
# [23] = molecular target: Neu5Ac(a2-3)Gal(b1-3)GlcNAc(b1-3)Gal(b1-4)GlcNAc
# How it was run: as §1
# [24] = molecular target: Neu5Ac(a2-3)Gal(b1-3)GlcNAc(b1-3)GalNAc
# How it was run: as §1
# [25] = molecular target: Neu5Ac(a2-3)Gal(b1-3)GlcNAc(b1-6)GalNAc
# How it was run: as §1
# [26] = molecular target: Neu5Ac(a2-3)Gal(b1-3)GlcNAc6S
# How it was run: as §1
# [27] = molecular target: Neu5Ac(a2-3)Gal(b1-3)[Fuc(a1-4)]GlcNAc
# How it was run: as §1
# [28] = molecular target: Neu5Ac(a2-3)Gal(b1-3)[Fuc(a1-4)]GlcNAc(b1-3)Gal(b1-3)[Fuc(a1-4)]GlcNAc
# How it was run: as §1
# [29] = molecular target: Neu5Ac(a2-3)Gal(b1-3)[Fuc(a1-4)]GlcNAc(b1-3)Gal(b1-4)[Fuc(a1-3)]GlcNAc
# How it was run: as §1
# [30] = molecular target: Neu5Ac(a2-3)Gal(b1-3)[GlcNAc(b1-6)]GalNAc
# How it was run: as §1
# [31] = molecular target: Neu5Ac(a2-3)Gal(b1-3)[Neu5Ac(a2-6)]GalNAc
# How it was run: as §1
# [32] = molecular target: Neu5Ac(a2-3)Gal(b1-3)[Neu5Ac(a2-6)]GlcNAc(b1-3)[Fuc(a1-3)[Gal(b1-4)]GlcNAc(b1-6)]Gal(b1-4)Glc
# How it was run: as §1
# [33] = molecular target: Neu5Ac(a2-3)Gal(b1-3)]Neu5Ac(a2-3)Gal(b1-4)]GlcNAc
# How it was run: as §1
binder,measurement,setting,value
B1,glycan array binding signal (z-score),[1],-0.376
same,glycan array binding signal (z-score),[2],-0.549
same,glycan array binding signal (z-score),[3],-0.792
same,glycan array binding signal (z-score),[4],0.205
same,glycan array binding signal (z-score),[5],-0.303
same,glycan array binding signal (z-score),Man(a1-3)[Man(a1-6)]Man,-0.46
same,glycan array binding signal (z-score),[6],-1.03
same,glycan array binding signal (z-score),[7],-1.07
same,glycan array binding signal (z-score),[8],0.605
same,glycan array binding signal (z-score),[9],0.621
same,glycan array binding signal (z-score),[10],-0.549
same,glycan array binding signal (z-score),Man(a1-6)Man,0.82
same,glycan array binding signal (z-score),Man(b1-4)GlcNAc,1.66
same,glycan array binding signal (z-score),MurNAc(b1-4)GlcNAc,2.54
same,glycan array binding signal (z-score),Neu5Ac(a2-3)Gal,-0.87
same,glycan array binding signal (z-score),[11],-0.316
same,glycan array binding signal (z-score),[12],1.05
same,glycan array binding signal (z-score),[13],-1.02
same,glycan array binding signal (z-score),[14],2.9
same,glycan array binding signal (z-score),[15],-1.93
same,glycan array binding signal (z-score),[16],-0.819
same,glycan array binding signal (z-score),[17],0.012
same,glycan array binding signal (z-score),[18],2.63
same,glycan array binding signal (z-score),[19],-0.515
same,glycan array binding signal (z-score),[20],1.14
same,glycan array binding signal (z-score),[21],-0.567
same,glycan array binding signal (z-score),[22],0.202
same,glycan array binding signal (z-score),[23],0.213
same,glycan array binding signal (z-score),[24],-0.863
same,glycan array binding signal (z-score),[25],-0.193
same,glycan array binding signal (z-score),[26],0.288
same,glycan array binding signal (z-score),[27],2.3
same,glycan array binding signal (z-score),[28],-0.535
same,glycan array binding signal (z-score),[29],2.31
same,glycan array binding signal (z-score),[30],-0.378
same,glycan array binding signal (z-score),[31],-0.428
same,glycan array binding signal (z-score),[32],-0.049
same,glycan array binding signal (z-score),[33],0.125
